Some results were stated once for a whole list of compounds, not compound by compound.
target: T1, human CCR10 (Homo sapiens, UniProt P46092); experiment: Calcium assay of human CCR10 (inhibition of CTACK-induced increase in intracellular calcium ion concentration in hCCR10G16 cells); assay type: cell-based; conditions: at a concentration of 100 nmol/L; human recombinant CTACK
T1 construct: expressed in transfected cells; host or cells: KJMGER8 cell (cell line derived from Namalwa cell); expression induced with 10 nmol/L β-estradiol
T1 sequence (P46092 1-362): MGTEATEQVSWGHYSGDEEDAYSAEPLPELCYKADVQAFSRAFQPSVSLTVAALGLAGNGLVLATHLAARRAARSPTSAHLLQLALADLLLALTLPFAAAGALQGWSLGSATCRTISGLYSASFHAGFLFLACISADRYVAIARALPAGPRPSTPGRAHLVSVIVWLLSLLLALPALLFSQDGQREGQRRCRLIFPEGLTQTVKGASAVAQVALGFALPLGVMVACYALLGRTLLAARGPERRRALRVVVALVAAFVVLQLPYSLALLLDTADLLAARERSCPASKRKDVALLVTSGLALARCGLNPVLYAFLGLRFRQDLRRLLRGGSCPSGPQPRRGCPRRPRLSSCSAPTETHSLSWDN
Summary of the method: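 KJMGER8-derived hCCR10G16 cells (human CCR10 plus Gα16, expression induced 24 h with 10 nmol/L β-estradiol) were dye-loaded and preincubated with compound for 30 min at 37 °C, then stimulated with CTACK (300 nmol/L stock). Calcium flux over ~5 min (max−min fluorescence) gave percent inhibition versus DMSO control.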

| Structure (SMILES) | antagonistic effect against CCR10 |
| --- | --- |
| CCNC(=O)NS(=O)(=O)c1cnn2c(Nc3cc(C)ccc3Cl)c(C(=O)N3CC4(C3)CN(c3ccc(F)cc3)C4)cnc12 [a-61, 7-(2-Chloro-5-methylphenylamino)-N-(ethylcarbamoyl)-6-[6-(4-fluorophenyl)-2,6-diazaspiro[3,3]heptane-2-carbonyl]pyrazolo[1,5-a]pyrimidine-3-sulfonamide] | showed an antagonistic effect against CCR10 |
| CCNC(=O)NS(=O)(=O)c1cnn2c(Nc3ccc(Cl)cc3C)c(C(=O)N3CCC4(CC3)OCc3ccccc34)cnc12 [a-47, 7-(4-Chloro-2-methylphenylamino)-N-(ethylcarbamoyl)-6-[3H-spiro(isobenzofuran-1,4′-piperidine)-1′-carbonyl]pyrazolo[1,5-a]pyrimidine-3-sulfonamide] | showed an antagonistic effect against CCR10 |
| Cc1cc(F)ccc1Nc1c(C(=O)N2CCC(c3ccc(F)cc3)CC2)cnc2c(S(=O)(=O)NC3CC3)cnn12 [a-5, N-Cyclopropyl-7-(4-fluoro-2-methylphenylamino)-6-[4-(4-fluorophenyl)piperidine-1-carbonyl]pyrazolo[1,5-a]pyrimidine-3-sulfonamide] | showed an antagonistic effect against CCR10 |
| CCNS(=O)(=O)c1cnn2c(Nc3ccc(F)cc3C)c(C(=O)N3CCC(c4ccccc4)CC3)cnc12 [a-2, N-Ethyl-7-(4-fluoro-2-methylphenylamino)-6-(4-phenylpiperidine-1-carbonyl)pyrazolo[1,5-a]pyrimidine-3-sulfonamide] | showed an antagonistic effect against CCR10 |
| O=C(NS(=O)(=O)c1cnn2c(Nc3ccccc3Cl)c(C(=O)N3CCC(c4ccccc4)CC3)cnc12)C1CC1 [a-6, N-[7-(2-Chlorophenylamino)-6-(4-phenylpiperidine-1-carbonyl)pyrazolo[1,5-a]pyrimidin-3-ylsulfonyl]cyclopropanecarboxamide] | showed an antagonistic effect against CCR10 |
| Cc1cc(F)ccc1Nc1c(C(=O)N2CCC(c3ccc(F)cc3)CC2)cnc2c(S(=O)(=O)NCC(F)(F)F)cnn12 [a-4, 7-(4-Fluoro-2-methylphenylamino)-6-[4-(4-fluorophenyl)piperidine-1-carbonyl]-N-(2,2,2-trifluoroethyl)pyrazolo[1,5-a]pyrimidine-3-sulfonamide] | showed an antagonistic effect against CCR10 |
| Cc1ccc(F)c(Nc2c(C(=O)N3CCC(c4ccc(F)cc4)CC3)cnc3c(S(=O)(=O)NC(=O)NC4CC4)cnn23)c1 [a-32, 7-(2-Fluoro-5-methylphenylamino)-N-(cyclopropylcarbamoyl)-6-[4-(4-fluorophenyl)piperidine-1-carbonyl]pyrazolo[1,5-a]pyrimidine-3-sulfonamide] | showed an antagonistic effect against CCR10 |
| CCC(=O)NS(=O)(=O)c1cnn2c(Nc3ccc(C)cc3Cl)c(C(=O)N3CCC(c4ccc(F)cc4)CC3)cnc12 [a-18, N-{7-(2-Chloro-4-methylphenylamino)-6-[4-(4-fluorophenyl)piperidine-1-carbonyl]pyrazolo[1,5-a]pyrimidin-3-ylsulfonyl}propionamide] | showed an antagonistic effect against CCR10 |
| CCC(=O)NS(=O)(=O)c1cnn2c(Nc3cc(C(F)(F)F)ccc3Cl)c(C(=O)N3CCC(c4ccc(F)cc4)CC3)cnc12 [a-29, N-{7-(2-Chloro-5-trifluoromethylphenylamino)-6-[4-(4-fluorophenyl)piperidine-1-carbonyl]pyrazolo[1,5-a]pyrimidin-3-ylsulfonyl}propionamide] | showed an antagonistic effect against CCR10 |
| CC(=O)NS(=O)(=O)c1cnn2c(Nc3ccc(F)cc3C)c(C(=O)N3CCC(c4ccccc4)CC3)cnc12 [a-17, N-[7-(4-Fluoro-2-methylphenylamino)-6-(4-phenylpiperidine-1-carbonyl)pyrazolo[1,5-a]pyrimidin-3-ylsulfonyl]acetamide] | showed an antagonistic effect against CCR10 |
| CCC(=O)NS(=O)(=O)c1cnn2c(Nc3ccc(Cl)cc3Cl)c(C(=O)N3CCC(c4ccc(F)cc4)CC3)cnc12 [a-19, N-{7-(2,4-Dichlorophenylamino)-6-[4-(4-fluorophenyl)piperidine-1-carbonyl]pyrazolo[1,5-a]pyrimidin-3-ylsulfonyl}propionamide] | showed an antagonistic effect against CCR10 |
| Cc1ccc(Cl)c(Nc2c(C(=O)N3CCC(c4ccc(F)cc4)CC3)cnc3c(S(=O)(=O)NC(=O)C4CC4)cnn23)c1 [a-12, N-{7-(2-Chloro-5-methylphenylamino)-6-[4-(4-fluorophenyl)piperidine-1-carbonyl]pyrazolo[1,5-a]pyrimidin-3-ylsulfonyl}cyclopropanecarboxamide] | showed an antagonistic effect against CCR10 |
| CCNC(=S)NS(=O)(=O)c1cnn2c(Nc3ccc(F)cc3C)c(C(=O)N3CCC(c4ccccc4)CC3)cnc12 [a-69, N-Ethylcarbamothioyl-7-(4-fluoro-2-methylphenylamino)-6-(4-phenylpiperidine-1-carbonyl)pyrazolo[1,5-a]pyrimidine-3-sulfonamide] | showed an antagonistic effect against CCR10 |
| O=C(NS(=O)(=O)c1cnn2c(Nc3ccccc3Cl)c(C(=O)N3CCC(c4ccc(F)cc4)CC3)cnc12)C1CC1 [a-9, N-{7-(2-Chlorophenylamino)-6-[4-(4-fluorophenyl)piperidine-1-carbonyl]pyrazolo[1,5-a]pyrimidin-3-ylsulfonyl}cyclopropanecarboxamide] | showed an antagonistic effect against CCR10 |
| COCCNS(=O)(=O)c1cnn2c(Nc3ccccc3Cl)c(C(=O)N3CCC(c4ccc(F)cc4)CC3)cnc12 [a-11, 7-(2-Chlorophenylamino)-6-[4-(4-fluorophenyl)piperidine-1-carbonyl]-N-(2-methoxyethyl)pyrazolo[1,5-a]pyrimidine-3-sulfonamide] | showed an antagonistic effect against CCR10 |
| CCNS(=O)(=O)c1cnn2c(Nc3cc(C)ccc3Cl)c(C(=O)N3CCC(c4ccc(F)cc4)CC3)cnc12 [a-15, N-Ethyl-7-(2-chloro-5-methylphenylamino)-6-[4-(4-fluorophenyl)piperidine-1-carbonyl]pyrazolo[1,5-a]pyrimidine-3-sulfonamide] | showed an antagonistic effect against CCR10 |

Reference: US20140221340A1 (KYOWA HAKKO KIRIN CO., LTD., priority 2011, published 2014)
